The other results are listed elsewhere or left out. Many values rest on one well or one pass, so single values are uncertain.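 Imaging used 1,536-well plates; nuclei positive for cleaved PARP by antibody were divided by total DNA-stained nuclei to yield the apoptosis fraction. Doses for screening kept most cells viable, and cell lines differ markedly in resting and induced cleaved-PARP levels.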
Test system: WM115
Test: cleaved PARP positive nuclei fraction relative to DMSO control; melanoma cells; higher = more apoptosis
Conditions: library dose: low library concentration; 72 h

| Compound | cleaved PARP positive nuclei fraction [%] |
| --- | --- |
| CC(C)(C)c1cnc(CSc2cnc(NC(=O)C3CCNCC3)s2)o1 + CCc1ccc(CCOc2ccc(CC3SC(=O)NC3=O)cc2)nc1 [pioglitazone] (first compound 0.01 µM, partner dose 2 µM) | 47.9 |
| C[C@]1(c2nc3c(C(N)=O)cccc3[nH]2)CCCN1 [Veliparib] + COc1ccc(COc2ccc(Cc3cnc(N)nc3N)cc2OC)cc1 [GW2580] (first compound 1.4 µM, partner dose 1 µM) | 102 |
| Cc1ccc(NC(=O)c2cccc(N(C)C)c2)cc1NC(=O)c1ccc(O)cc1 + NCC(=O)Nc1ccc(-n2nc(C(F)(F)F)cc2-c2ccc3c(ccc4ccccc43)c2)cc1 [OSU03012] (first compound 2 µM, partner dose 1 µM) | 146 |

Test system: WM1716
Test: as above
Conditions: library dose: low library concentration; 72 h

| Compound | cleaved PARP positive nuclei fraction [%] |
| --- | --- |
| C=CCNC1=C2C[C@@H](C)C[C@H](OC)[C@H](O)[C@@H](C)/C=C(\C)[C@H](OC(N)=O)[C@@H](OC)/C=C\C=C(/C)C(=O)NC(=CC1=O)C2=O [Tanespimycin] + Cn1c(Nc2ccc(C(F)(F)F)cc2)nc2cc(Oc3ccnc(-c4ncc(C(F)(F)F)[nH]4)c3)ccc21 [CHIR265] (first compound 0.002 µM, partner dose 0.08 µM) | 54.2 |
| Clc1ccc(Nc2nnc(Cc3ccncc3)c3ccccc23)cc1 [vatalanib] + CC(C)(C)c1cnc(CSc2cnc(NC(=O)C3CCNCC3)s2)o1 [SNS-032] (first compound 2 µM, partner dose 0.01 µM) | 91.6 |
| C[C@]1(c2nc3c(C(N)=O)cccc3[nH]2)CCCN1 [Veliparib] + CC(C)(C)c1cnc(CSc2cnc(NC(=O)C3CCNCC3)s2)o1 [SNS-032] (first compound 1.4 µM, partner dose 0.01 µM) | 88.8 |
| C#Cc1cccc(Nc2ncnc3cc(OCCOC)c(OCCOC)cc23)c1 [erlotinib] + CN(C)S(=O)(=O)c1ccc2c(c1)/C(=C/c1cc3c([nH]1)CCCC3)C(=O)N2 [SU6656] (first compound 0.8 µM, partner dose 0.4 µM) | 85.9 |
| Cc1ccc(NC(=O)c2cccc(N(C)C)c2)cc1NC(=O)c1ccc(O)cc1 + Oc1cc(-c2nc(-c3ccccc3)[nH]c2-c2ccncc2)ccc1Cl [L779450] (first compound 2 µM, partner dose 0.2 µM) | 110 |
| O=C(CCCCCCC(=O)Nc1ccccc1)NO [vorinostat] + CCc1ccc(CCOc2ccc(CC3SC(=O)NC3=O)cc2)nc1 [pioglitazone] (first compound 0.08 µM, partner dose 2 µM) | 68.5 |
| C#Cc1cccc(Nc2ncnc3cc(OCCOC)c(OCCOC)cc23)c1 [erlotinib] + O=C(Nc1ccccc1)c1cc([N+](=O)[O-])ccc1Cl [GW9662] (first compound 0.8 µM, partner dose 2 µM) | 126 |
| Cc1cc(N2CCOCC2)cc2[nH]c(-c3c(NC[C@@H](O)c4cccc(Cl)c4)cc[nH]c3=O)nc12 + O=C1NC(=O)/C(=C/c2ccc(-c3ccc(F)cc3O)o2)S1 [AS252424] (first compound 0.2 µM, partner dose 1 µM) | 49.3 |
| C#Cc1cccc(Nc2ncnc3cc(OCCOC)c(OCCOC)cc23)c1 [erlotinib] + CC1(C)NC(=O)N(c2ccc([N+](=O)[O-])c(C(F)(F)F)c2)C1=O [nilutamide] (first compound 0.8 µM, partner dose 1 µM) | 76.3 |
| CO[C@@H]1[C@H](N(C)C(=O)c2ccccc2)C[C@H]2O[C@]1(C)n1c3ccccc3c3c4c(c5c6ccccc6n2c5c31)C(=O)NC4 [Midostaurin] + CCCCCCCCCCCC1=C(O)C(=O)C=C(O)C1=O [Embelin] (first compound 0.08 µM, partner dose 1.2 µM) | 51.9 |
| NC(=O)Nc1cc(-c2cccc(F)c2)sc1C(=O)N[C@H]1CCCNC1 + CN(C)S(=O)(=O)c1ccc2c(c1)/C(=C/c1cc3c([nH]1)CCCC3)C(=O)N2 [SU6656] (first compound 0.02 µM, partner dose 0.4 µM) | 69.5 |
| Clc1ccc(Nc2nnc(Cc3ccncc3)c3ccccc23)cc1 [vatalanib] + Cc1cc(N2CCOCC2)cc2[nH]c(-c3c(NC[C@@H](O)c4cccc(Cl)c4)cc[nH]c3=O)nc12 [BMS536924] (first compound 2 µM, partner dose 0.2 µM) | 148 |
| Cc1cc(N2CCOCC2)cc2[nH]c(-c3c(NC[C@@H](O)c4cccc(Cl)c4)cc[nH]c3=O)nc12 + OCCn1cc(-c2cnc3nnn(Cc4ccc5ncccc5c4)c3n2)cn1 [PF04217903] (first compound 0.2 µM, partner dose 1 µM) | 67.4 |
| COc1cc(Nc2ncc(F)c(Nc3ccc4c(n3)NC(=O)C(C)(C)O4)n2)cc(OC)c1OC [Tamatinib] + Oc1nc(-c2ccc(C(F)(F)F)cc2)nc2c1CSCC2 [XAV939] (first compound 0.4 µM, partner dose 2 µM) | 147 |
| Clc1ccc(Nc2nnc(Cc3ccncc3)c3ccccc23)cc1 [vatalanib] + O=C(Nc1cccc(Cl)c1)Nc1ncc(CCNc2ncnc3ccsc23)s1 [SNS314] (first compound 2 µM, partner dose 0.0008 µM) | 154 |
| NC(=O)Nc1cc(-c2cccc(F)c2)sc1C(=O)N[C@H]1CCCNC1 + COc1ccc(-c2ccc3c(N4CCOCC4)nc(N4C[C@@H](C)O[C@@H](C)C4)nc3n2)cc1CO [KU0063794] (first compound 0.02 µM, partner dose 0.02 µM) | 132 |
| C[C@@H]1CCN(C(=O)CC#N)C[C@@H]1N(C)c1ncnc2[nH]ccc12 + COc1ccc(-c2ccc3c(N4CCOCC4)nc(N4C[C@@H](C)O[C@@H](C)C4)nc3n2)cc1CO [KU0063794] (first compound 1 µM, partner dose 0.02 µM) | 102 |
| Clc1ccc(Nc2nnc(Cc3ccncc3)c3ccccc23)cc1 [vatalanib] + O=C1NC(=O)/C(=C/c2ccc(-c3ccc(F)cc3O)o2)S1 [AS252424] (first compound 2 µM, partner dose 1 µM) | 36.8 |
| C[C@]1(c2nc3c(C(N)=O)cccc3[nH]2)CCCN1 [Veliparib] + COc1cc2ncnc(Nc3ccc(Oc4ccccc4)cc3)c2cc1OC [SrcI1] (first compound 1.4 µM, partner dose 2 µM) | 172 |
| Cn1nnc2c(C(N)=O)ncn2c1=O [temozolomide] + Cc1ccc(NC(=O)c2cccc(N(C)C)c2)cc1NC(=O)c1ccc(O)cc1 [ZM336372] (first compound 2 µM, partner dose 2 µM) | 156 |
| CC1(C)NC(=O)N(c2ccc([N+](=O)[O-])c(C(F)(F)F)c2)C1=O [nilutamide] + O=C(O)c1ccc(-c2c[nH]c3ncc(-c4ccccc4)cc23)cc1C1CCCC1 [GSK650394] (first compound 1 µM, partner dose 0.16 µM) | 188 |
| NC(=O)Nc1cc(-c2cccc(F)c2)sc1C(=O)N[C@H]1CCCNC1 + OCCn1cc(-c2cnc3nnn(Cc4ccc5ncccc5c4)c3n2)cn1 [PF04217903] (first compound 0.02 µM, partner dose 1 µM) | 148 |
| C[C@@H]1CCN(C(=O)CC#N)C[C@@H]1N(C)c1ncnc2[nH]ccc12 + COC(=O)c1sccc1S(=O)(=O)Nc1ccc(Nc2ccccc2)cc1OC [GSK0660] (first compound 1 µM, partner dose 1 µM) | 101 |
| CC(=O)c1c(C)c2cnc(Nc3ccc(N4CCNCC4)cn3)nc2n(C2CCCC2)c1=O [palbociclib] + CO[C@@H]1[C@H](N(C)C(=O)c2ccccc2)C[C@H]2O[C@]1(C)n1c3ccccc3c3c4c(c5c6ccccc6n2c5c31)C(=O)NC4 [Midostaurin] (first compound 0.04 µM, partner dose 0.08 µM) | 143 |
| Cc1nc(Nc2ncc(C(=O)Nc3c(C)cccc3Cl)s2)cc(N2CCN(CCO)CC2)n1 [dasatanib] + COc1cc2c(Oc3ccc4[nH]c(C)cc4c3F)ncnc2cc1OCCCN1CCCC1 [cediranib] (first compound 0.004 µM, partner dose 0.4 µM) | 440 |
| OCc1c[nH]c2ccccc12 [Indole-3-carbinol] + CO[C@@H]1[C@H](N(C)C(=O)c2ccccc2)C[C@H]2O[C@]1(C)n1c3ccccc3c3c4c(c5c6ccccc6n2c5c31)C(=O)NC4 [Midostaurin] (first compound 0.8 µM, partner dose 0.08 µM) | 201 |
| C=CCNC1=C2C[C@@H](C)C[C@H](OC)[C@H](O)[C@@H](C)/C=C(\C)[C@H](OC(N)=O)[C@@H](OC)/C=C\C=C(/C)C(=O)NC(=CC1=O)C2=O [Tanespimycin] + Cc1cc([N+](=O)[O-])ccc1NS(=O)(=O)c1cc(Cl)ccc1Cl [FH535] (first compound 0.002 µM, partner dose 1 µM) | 115 |
| Cc1cc(N2CCOCC2)cc2[nH]c(-c3c(NC[C@@H](O)c4cccc(Cl)c4)cc[nH]c3=O)nc12 + C[C@@H]1CCN(C(=O)CC#N)C[C@@H]1N(C)c1ncnc2[nH]ccc12 [CP690550] (first compound 0.2 µM, partner dose 1 µM) | 99.4 |
| O=C(CCCCCCC(=O)Nc1ccccc1)NO [vorinostat] + C[C@@H]1CCN(C(=O)CC#N)C[C@@H]1N(C)c1ncnc2[nH]ccc12 [CP690550] (first compound 0.08 µM, partner dose 1 µM) | 92.1 |

7 entries from above, in CSV form.
Compound,cleaved PARP positive nuclei fraction [%]
"Cc1ccc(NC(=O)c2cccc(N(C)C)c2)cc1NC(=O)c1ccc(O)cc1 + Oc1cc(-c2nc(-c3ccccc3)[nH]c2-c2ccncc2)ccc1Cl [L779450] (first compound 2 µM, partner dose 0.2 µM)",110
"O=C(CCCCCCC(=O)Nc1ccccc1)NO [vorinostat] + CCc1ccc(CCOc2ccc(CC3SC(=O)NC3=O)cc2)nc1 [pioglitazone] (first compound 0.08 µM, partner dose 2 µM)",68.5
"C#Cc1cccc(Nc2ncnc3cc(OCCOC)c(OCCOC)cc23)c1 [erlotinib] + O=C(Nc1ccccc1)c1cc([N+](=O)[O-])ccc1Cl [GW9662] (first compound 0.8 µM, partner dose 2 µM)",126
"Cc1cc(N2CCOCC2)cc2[nH]c(-c3c(NC[C@@H](O)c4cccc(Cl)c4)cc[nH]c3=O)nc12 + O=C1NC(=O)/C(=C/c2ccc(-c3ccc(F)cc3O)o2)S1 [AS252424] (first compound 0.2 µM, partner dose 1 µM)",49.3
"C#Cc1cccc(Nc2ncnc3cc(OCCOC)c(OCCOC)cc23)c1 [erlotinib] + CC1(C)NC(=O)N(c2ccc([N+](=O)[O-])c(C(F)(F)F)c2)C1=O [nilutamide] (first compound 0.8 µM, partner dose 1 µM)",76.3
"CO[C@@H]1[C@H](N(C)C(=O)c2ccccc2)C[C@H]2O[C@]1(C)n1c3ccccc3c3c4c(c5c6ccccc6n2c5c31)C(=O)NC4 [Midostaurin] + CCCCCCCCCCCC1=C(O)C(=O)C=C(O)C1=O [Embelin] (first compound 0.08 µM, partner dose 1.2 µM)",51.9
"NC(=O)Nc1cc(-c2cccc(F)c2)sc1C(=O)N[C@H]1CCCNC1 + CN(C)S(=O)(=O)c1ccc2c(c1)/C(=C/c1cc3c([nH]1)CCCC3)C(=O)N2 [SU6656] (first compound 0.02 µM, partner dose 0.4 µM)",69.5

Source: the supplement of paper PMC4604168 (melanoma cell lines)
